Further values from the same series stand in other lists.
Legend:
Format in all cases: functional
Candida parapsilosis [1] = experiment: Decrease in GSG1 gene expression in Candida parapsilosis CLIB214 at 50 uM after 2 hrs by microarray based transcriptional profiling relative to control
Candida parapsilosis [2] = experiment: Increase in CAG1 gene expression in Candida parapsilosis CLIB214 at 50 uM after 2 hrs by microarray based transcriptional profiling relative to control
Candida parapsilosis [3] = experiment: Decrease in CGD gene ortholog accession number orf19.3951 expression in Candida parapsilosis CLIB214 at 50 uM after 2 hrs by microarray based transcriptional profiling relative to control
Candida parapsilosis [4] = experiment: Decrease in CGD gene ortholog accession number orf19.4760 expression in Candida parapsilosis CLIB214 at 50 uM after 2 hrs by microarray based transcriptional profiling relative to control
Candida parapsilosis [5] = experiment: Decrease in CGD gene ortholog accession number orf19.1496 expression in Candida parapsilosis CLIB214 at 50 uM after 2 hrs by microarray based transcriptional profiling relative to control
Candida parapsilosis [6] = experiment: Decrease in DES1 gene expression in Candida parapsilosis CLIB214 at 50 uM after 2 hrs by microarray based transcriptional profiling relative to control
Candida parapsilosis [7] = experiment: Decrease in ERG9 gene expression in Candida parapsilosis CLIB214 at 50 uM after 2 hrs by microarray based transcriptional profiling relative to control
Candida parapsilosis [8] = experiment: Decrease in ERG251 gene expression in Candida parapsilosis CLIB214 at 50 uM after 2 hrs by microarray based transcriptional profiling relative to control
Candida parapsilosis [9] = experiment: Decrease in CGD gene ortholog accession number orf19.6294 expression in Candida parapsilosis CLIB214 at 50 uM after 2 hrs by microarray based transcriptional profiling relative to control
Candida parapsilosis [10] = experiment: Increase in CGD gene ortholog accession number orf19.6730 expression in Candida parapsilosis CLIB214 at 50 uM after 2 hrs by microarray based transcriptional profiling relative to control
Candida parapsilosis [11] = experiment: Increase in CGD gene ortholog accession number orf19.7238 expression in Candida parapsilosis CLIB214 at 50 uM after 2 hrs by microarray based transcriptional profiling relative to control
Candida parapsilosis [12] = experiment: Decrease in CGD gene ortholog accession number orf19.7604 expression in Candida parapsilosis CLIB214 at 50 uM after 2 hrs by microarray based transcriptional profiling relative to control
Candida parapsilosis [13] = experiment: Decrease in CGD gene ortholog accession number orf19.6444 expression in Candida parapsilosis CLIB214 at 50 uM after 2 hrs by microarray based transcriptional profiling relative to control
Candida parapsilosis [14] = experiment: Increase in CGD gene ortholog accession number orf19.37 expression in Candida parapsilosis CLIB214 at 50 uM after 2 hrs by microarray based transcriptional profiling relative to control
Candida parapsilosis [15] = experiment: Increase in CGD gene ortholog accession number orf19.6369 expression in Candida parapsilosis CLIB214 at 50 uM after 2 hrs by microarray based transcriptional profiling relative to control
Candida parapsilosis [16] = experiment: Increase in CGD gene ortholog accession number orf19.5517 expression in Candida parapsilosis CLIB214 at 50 uM after 2 hrs by microarray based transcriptional profiling relative to control
Candida parapsilosis [17] = experiment: Decrease in CGD gene ortholog accession number orf19.6476 expression in Candida parapsilosis CLIB214 at 50 uM after 2 hrs by microarray based transcriptional profiling relative to control
Candida parapsilosis [18] = experiment: Increase in CGD gene ortholog accession number orf19.2335 expression in Candida parapsilosis CLIB214 at 50 uM after 2 hrs by microarray based transcriptional profiling relative to control
Candida parapsilosis [19] = experiment: Decrease in CGD gene ortholog accession number orf19.5919 expression in Candida parapsilosis CLIB214 at 50 uM after 2 hrs by microarray based transcriptional profiling relative to control
Candida parapsilosis [20] = experiment: Decrease in CGD gene ortholog accession number orf19.6186 expression in Candida parapsilosis CLIB214 at 50 uM after 2 hrs by microarray based transcriptional profiling relative to control
Candida parapsilosis [21] = experiment: Increase in CGD gene ortholog accession number orf19.2208 expression in Candida parapsilosis CLIB214 at 50 uM after 2 hrs by microarray based transcriptional profiling relative to control
Candida parapsilosis [22] = experiment: Decrease in CGD gene ortholog accession number orf19.1905 expression in Candida parapsilosis CLIB214 at 50 uM after 2 hrs by microarray based transcriptional profiling relative to control
Candida parapsilosis [23] = experiment: Increase in CGD gene ortholog accession number orf19.4750 expression in Candida parapsilosis CLIB214 at 50 uM after 2 hrs by microarray based transcriptional profiling relative to control
Candida parapsilosis [24] = experiment: Increase in CGD gene ortholog accession number orf19.1933 expression in Candida parapsilosis CLIB214 at 50 uM after 2 hrs by microarray based transcriptional profiling relative to control
Candida parapsilosis [25] = experiment: Decrease in CGD gene ortholog accession number orf19.3231 expression in Candida parapsilosis CLIB214 at 50 uM after 2 hrs by microarray based transcriptional profiling relative to control
Candida parapsilosis [26] = experiment: Increase in CGD gene ortholog accession number orf19.7234 expression in Candida parapsilosis CLIB214 at 50 uM after 2 hrs by microarray based transcriptional profiling relative to control
Candida parapsilosis [27] = experiment: Decrease in CGD gene ortholog accession number orf19.355 expression in Candida parapsilosis CLIB214 at 50 uM after 2 hrs by microarray based transcriptional profiling relative to control
Candida parapsilosis [28] = experiment: Increase in CGD gene ortholog accession number orf19.5318 expression in Candida parapsilosis CLIB214 at 50 uM after 2 hrs by microarray based transcriptional profiling relative to control
Candida parapsilosis [29] = experiment: Increase in CSP37 gene expression in Candida parapsilosis CLIB214 at 50 uM after 2 hrs by microarray based transcriptional profiling relative to control
Candida parapsilosis [30] = experiment: Increase in CGD gene ortholog accession number orf19.444 expression in Candida parapsilosis CLIB214 at 50 uM after 2 hrs by microarray based transcriptional profiling relative to control
Candida parapsilosis [31] = experiment: Decrease in FRE7 gene expression in Candida parapsilosis CLIB214 at 50 uM after 2 hrs by microarray based transcriptional profiling relative to control
Candida parapsilosis [32] = experiment: Decrease in CGD gene ortholog accession number orf19.5586 expression in Candida parapsilosis CLIB214 at 50 uM after 2 hrs by microarray based transcriptional profiling relative to control
Candida parapsilosis [33] = experiment: Decrease in CGD gene ortholog accession number orf19.5515 expression in Candida parapsilosis CLIB214 at 50 uM after 2 hrs by microarray based transcriptional profiling relative to control
Candida parapsilosis [34] = experiment: Decrease in CGD gene ortholog accession number orf19.5735 expression in Candida parapsilosis CLIB214 at 50 uM after 2 hrs by microarray based transcriptional profiling relative to control
Candida parapsilosis [35] = experiment: Increase in WRS1 gene expression in Candida parapsilosis CLIB214 at 50 uM after 2 hrs by microarray based transcriptional profiling relative to control
Candida parapsilosis [36] = experiment: Decrease in KEL1 gene expression in Candida parapsilosis CLIB214 at 50 uM after 2 hrs by microarray based transcriptional profiling relative to control

Compound: CC(C)=CCC/C(C)=C/CC/C(C)=C/CO [FARNESOL]
- fold change (FC) (Candida parapsilosis [1]): 1.76
- fold change (FC) (Candida parapsilosis [2]): 1.7
- fold change (FC) (Candida parapsilosis [3]): 1.86
- fold change (FC) (Candida parapsilosis [4]): 2.13
- fold change (FC) (Candida parapsilosis [5]): 2.69
- fold change (FC) (Candida parapsilosis [6]): 2.22
- fold change (FC) (Candida parapsilosis [7]): 1.58
- fold change (FC) (Candida parapsilosis [8]): 2.24
- fold change (FC) (Candida parapsilosis [9]): 2.52
- fold change (FC) (Candida parapsilosis [10]): 2.12
- fold change (FC) (Candida parapsilosis [11]): 2.41
- fold change (FC) (Candida parapsilosis [12]): 2.03
- fold change (FC) (Candida parapsilosis [13]): 1.99
- fold change (FC) (Candida parapsilosis [14]): 1.74
- fold change (FC) (Candida parapsilosis [15]): 1.62
- fold change (FC) (Candida parapsilosis [16]): 5.66
- fold change (FC) (Candida parapsilosis [17]): 1.81
- fold change (FC) (Candida parapsilosis [18]): 1.86
- fold change (FC) (Candida parapsilosis [19]): 1.93
- fold change (FC) (Candida parapsilosis [20]): 1.52
- fold change (FC) (Candida parapsilosis [21]): 1.51
- fold change (FC) (Candida parapsilosis [22]): 1.94
- fold change (FC) (Candida parapsilosis [23]): 1.58
- fold change (FC) (Candida parapsilosis [24]): 1.58
- fold change (FC) (Candida parapsilosis [25]): 1.76
- fold change (FC) (Candida parapsilosis [26]): 1.79
- fold change (FC) (Candida parapsilosis [27]): 1.82
- fold change (FC) (Candida parapsilosis [28]): 1.75
- fold change (FC) (Candida parapsilosis [29]): 1.98
- fold change (FC) (Candida parapsilosis [30]): 2.03
- fold change (FC) (Candida parapsilosis [31]): 1.93
- fold change (FC) (Candida parapsilosis [32]): 1.75
- fold change (FC) (Candida parapsilosis [33]): 2.23
- fold change (FC) (Candida parapsilosis [34]): 1.56
- fold change (FC) (Candida parapsilosis [35]): 1.51
- fold change (FC) (Candida parapsilosis [36]): 1.55
